The results in this text go back to the supplement of paper PMC10338343.

± gives the standard deviation. The list shows a part of the results, in another mix than the full data. The uncertainty is large for many entries.

This assay has as its system EfPiwi piRISC loaded with piRNA #1 (26 nt). Nature of the assay: pre-steady-state target cleavage rate (min^-1); guide: piRNA #1 5'p-UGAGGUAGUAGGUUGUAUAGUAUCCA; MIWI and MILI are mouse PIWI proteins and EfPiwi is from a freshwater sponge; tags in brackets are library labels; higher = faster piRNA-guided slicing of the target. Conditions: auxiliary factor: 500 nM Ephydatia muelleri Gtsf1. The gist of the method:
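A transcribed, DNA-blocked target RNA library […] was incubated at 33 °C for 0–8 or 0–960 min with 1 nM active affinity-purified piRISC carrying one synthetic guide, in HEPES–potassium acetate buffer with or without 500 nM GTSF1 partner protein. Uncleaved targets were then sequenced and normalised to depth and to weakly complementary targets. Data from three trials were pooled, with k3 capped at 0.0001 min^-1, and a burst-and-steady-state fit yielded the pre-steady-state cleavage rate.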
With GGAGACCUAUCAAUACAUCCUACUACCUCA, the “pre-steady-state target cleavage rate” value is 0.00304 ± 0.003.
Under GGAGACCUAUGUAUACAACCUACUAACUCA stands 0.00121 ± 0.0063; under GGAGACGAUACUAUUCAACCUACAACCUCA, 0.0024 ± 0.0017.
Under GGAGUGGAUUCUAUAGAACCUACUACCUCA stands 0.00117 ± 0.0038; under GGAGACCAUACUUUACAACCUUCUACCUCA, 0.00292 ± 0.0039; under GGAGACCAUACUAUGCAACCUACUACCUCA, 0.0164 ± 0.0068.
Under GGAGACCUUACUAUACAACCUAAUACCUCA stands 0.00281 ± 0.0029; under GGAGACCUAACUAAACAACCUACUACCACA, 0.000381 ± 0.024; under GGAGACCAUACUAUACAUCCUACAACCUCA, 0.00248 ± 0.0024.
GGAGACCUUUCUAUACAACCUACUAGCUCA: the “pre-steady-state target cleavage rate” value is 0.00299 ± 0.003.
GGAGACCAUUACUAUACAACCUACUACCUCA: the “pre-steady-state target cleavage rate” value was 0.148 ± 0.044.
Under GGAGAGGAUACUAAUGAACCUACUACCUCA stands 0.000358 ± 0.011.
Under GGAGACGAUACUAAACAACCUAGUACCUCA stands 0.00281 ± 0.0023.
Under GGAGACCUUACUAUAGUACCUACUACCUCA stands 0.00174 ± 0.0049; under GGAGACCUAUGUAUACAAGCUAGUACCUCA, 0.00105 ± 0.0067.
